Record: PubChem BioAssay AID1508588 (Peter MacCallum Cancer Centre, 2020)
In all, the deposit lists about 18,000 reagents; this is an unselected part. Of all reagents, 790 (4.4%) were called active. 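Calls rest on a combination of fold-change classes in drug and vehicle arms, not all shown here.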 A number with no mark means an inactive call. Reagent sequences are not shown.

- Test: 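Knock-downs boosting vemurafenib effects on melanoma cell growth or lactate release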 (primary screen)
- Cell system: human WM266.4 melanoma cells (BRAF V600 mutant)
- Knock-down reagent: siRNA pool against human genes, 40 nM
- Time to read-out: 96 h from transfection to read-out
- Challenge: vemurafenib 300 nM (about IC25), added 48 h after transfection, for 48 h; comparison arm got DMSO vehicle only
- Measurement: 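Cell gain (DAPI nuclei at end minus before drug, mean of two replicates) and medium lactate by absorbance per cell, both as ratio to non-targeting siRNA, also grouped into fold-change classes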
- Direction: cell gain with vemurafenib: higher = more cell gain than with non-targeting siRNA; lactate per cell with vemurafenib: higher = more lactate made per cell
- Hit rule: 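a knock-down counts as enhancing when its fold-change classes with vehicle and with vemurafenib, taken together, show a stronger drug effect on cell gain or lactate per cell; exact class pairs not stated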
- Meaning of the calls: active = enhances vemurafenib effect; inactive = no enhancement seen

ZBP1 (Z-DNA binding protein 1) | cell gain with vemurafenib: 0.61; lactate per cell with vemurafenib: 0.6
IRAK4 (interleukin 1 receptor associated kinase 4) | cell gain with vemurafenib: 0.62; lactate per cell with vemurafenib: 0.55
PTTG1 | cell gain with vemurafenib: 0.51; lactate per cell with vemurafenib: 0.88
PSD3 (pleckstrin and Sec7 domain containing 3) | cell gain with vemurafenib: 0.26; lactate per cell with vemurafenib: 1.81
MIS18A (MIS18 kinetochore protein A) | cell gain with vemurafenib: 0.55; lactate per cell with vemurafenib: 1.31
H2BC15 (H2B clustered histone 15) | cell gain with vemurafenib: 0.38; lactate per cell with vemurafenib: 1.92
SIKE1 (suppressor of IKBKE 1) | cell gain with vemurafenib: 0.4; lactate per cell with vemurafenib: 1.19
CCDC141 (coiled-coil domain containing 141) | cell gain with vemurafenib: 0.84; lactate per cell with vemurafenib: 0.78
NTRK1 (neurotrophic receptor tyrosine kinase 1) | cell gain with vemurafenib: 0.3; lactate per cell with vemurafenib: 0.98
DUOX2 (dual oxidase 2) | cell gain with vemurafenib: 0.35; lactate per cell with vemurafenib: 0.76
PNISR (PNN interacting serine and arginine rich protein) | cell gain with vemurafenib: 0.6; lactate per cell with vemurafenib: 2.05

Limited to “lactate per cell with vemurafenib” (3 entries from above):
PTTG1: 0.88
PSD3 (pleckstrin and Sec7 domain containing 3): 1.81
MIS18A (MIS18 kinetochore protein A): 1.31

The results go on.
GPR68 (G protein-coupled receptor 68) | cell gain with vemurafenib: 0.48; lactate per cell with vemurafenib: 0.7
SULT2B1 (sulfotransferase family 2B member 1) | cell gain with vemurafenib: 0.59; lactate per cell with vemurafenib: 0.6
SHROOM4 (shroom family member 4) | cell gain with vemurafenib: 0.77; lactate per cell with vemurafenib: 0.84
CDC20 (cell division cycle 20) | cell gain with vemurafenib: 0.01; lactate per cell with vemurafenib: 2.21
SLC4A8 | cell gain with vemurafenib: 0.64; lactate per cell with vemurafenib: 0.55
RNF135 (ring finger protein 135) | cell gain with vemurafenib: 1.03; lactate per cell with vemurafenib: 0.85
ADAMTS6 (ADAM metallopeptidase with thrombospondin type 1 motif 6) | cell gain with vemurafenib: 0.58; lactate per cell with vemurafenib: 1.06
NUFIP2 (nuclear FMR1 interacting protein 2) | cell gain with vemurafenib: 0.44; lactate per cell with vemurafenib: 0.78
CDH9 (cadherin 9) | cell gain with vemurafenib: 0.39; lactate per cell with vemurafenib: 1.24
ZNRF2 (zinc and ring finger 2) | cell gain with vemurafenib: 0.99; lactate per cell with vemurafenib: 0.85
NIPA1 (NIPA magnesium transporter 1) | cell gain with vemurafenib: 0.93; lactate per cell with vemurafenib: 0.52
TMEM170A (transmembrane protein 170A) | cell gain with vemurafenib: 0.36; lactate per cell with vemurafenib: 1.73
RAB17 (RAB17, member RAS oncogene family) | cell gain with vemurafenib: 0.57; lactate per cell with vemurafenib: 0.9
CTSC (cathepsin C) | cell gain with vemurafenib: 0.31; lactate per cell with vemurafenib: 0.94
PSME2 (proteasome activator subunit 2) | cell gain with vemurafenib: 0.13; lactate per cell with vemurafenib: 1.63
SLC35F4 | cell gain with vemurafenib: 0.8; lactate per cell with vemurafenib: 1.1
